At least one structure is not confirmed: it was looked up by name or label, or the drawing left a doubt.
Molecular target: Pgp ATPase (Cricetulus griseus, UniProt P21448)
Experiment: Pgp ATPase activity
Format: biochemical
Conditions: up to a concentration of 0.3 M

Amino acid sequences for entries named in this document (tags omitted).
UniProt P21448, whole entry: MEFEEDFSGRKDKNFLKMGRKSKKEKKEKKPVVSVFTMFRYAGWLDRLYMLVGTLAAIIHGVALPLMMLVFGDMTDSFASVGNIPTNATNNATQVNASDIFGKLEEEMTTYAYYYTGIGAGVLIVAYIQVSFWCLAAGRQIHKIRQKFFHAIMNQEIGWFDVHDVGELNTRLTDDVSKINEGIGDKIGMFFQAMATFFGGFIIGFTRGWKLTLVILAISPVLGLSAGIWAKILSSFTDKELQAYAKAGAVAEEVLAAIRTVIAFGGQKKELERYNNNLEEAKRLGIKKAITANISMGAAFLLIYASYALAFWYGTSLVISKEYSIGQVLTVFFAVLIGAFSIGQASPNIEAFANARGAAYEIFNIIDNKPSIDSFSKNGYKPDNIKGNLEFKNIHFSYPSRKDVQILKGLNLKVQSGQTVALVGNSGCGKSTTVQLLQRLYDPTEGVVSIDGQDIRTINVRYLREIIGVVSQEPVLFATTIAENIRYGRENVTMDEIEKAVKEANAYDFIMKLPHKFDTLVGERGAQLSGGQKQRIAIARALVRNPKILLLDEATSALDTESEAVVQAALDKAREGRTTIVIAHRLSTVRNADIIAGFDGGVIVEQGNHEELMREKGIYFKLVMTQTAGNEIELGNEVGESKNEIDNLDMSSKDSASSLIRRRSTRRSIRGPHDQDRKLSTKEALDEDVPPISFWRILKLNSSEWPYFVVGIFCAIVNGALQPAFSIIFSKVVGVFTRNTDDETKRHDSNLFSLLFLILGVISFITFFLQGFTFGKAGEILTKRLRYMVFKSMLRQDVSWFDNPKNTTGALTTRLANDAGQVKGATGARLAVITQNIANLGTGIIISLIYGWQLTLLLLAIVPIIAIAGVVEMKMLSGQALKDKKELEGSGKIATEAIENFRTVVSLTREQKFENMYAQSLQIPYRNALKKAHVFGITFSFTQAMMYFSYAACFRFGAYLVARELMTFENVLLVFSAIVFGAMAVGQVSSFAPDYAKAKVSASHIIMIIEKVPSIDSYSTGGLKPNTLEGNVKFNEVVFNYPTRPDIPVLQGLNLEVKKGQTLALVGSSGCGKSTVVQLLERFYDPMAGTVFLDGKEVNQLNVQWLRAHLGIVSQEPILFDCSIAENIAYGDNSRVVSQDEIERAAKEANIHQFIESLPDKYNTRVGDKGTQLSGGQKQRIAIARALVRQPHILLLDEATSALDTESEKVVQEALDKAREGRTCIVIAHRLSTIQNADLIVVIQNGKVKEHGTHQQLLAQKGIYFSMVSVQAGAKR

C=CC(N)=O [acrylamide]
effect on hydrolysis of ATP by Pgp: little effect

Reference: patent publication US20040029100A1, “Rapid screen to identify p-glycoprotein substrates and high affinity modulators” (priority 2000, published 2004)
